The values that follow are results of earlier work, collected in patent US12458703B2, “Responsive elastic polymers and methods of making and using same” (Purdue Research Foundation, priority 2016, dated 2025).

For this series the following is noted: reference line in FIG. 15, reference [24]; cited from earlier work.

With `CN1CC[C@]23c4c5ccc(O)c4O[C@H]2[C@@H](O)C=C[C@H]3[C@H]1C5` [morphine], the therapeutic plasma concentration was 10 ng/mL.
